The target of experiment [1] is cynomologus monkey OX40 expressed on the surface of activated lymphocytes (cynomolgus monkey). The experiment can be described thus: flow cytometry on PHA/IL-2 activated cynomolgus PBMC, biotinylated antibody, labelled streptavidin detection. (In general: Flow cytometry measures light scatter and fluorescence of single cells or particles in a stream.)
Experiment [2] has the same target. The experiment can be described thus: flow cytometry on PHA/IL-2 activated cynomolgus PBMCs, biotinylated antibody.

These are yes or no findings as the source states them, for the method shown. Binding calls can cover weak binding; strength is not graded here.

Here are results for one molecule from US20130183315A1.

B1: chimeric 1D4 antibody (antibody, human IgG1, kappa, V domains shown)
VH: QVTLKESGPGILQPSQTLSLTCSFSGFSLSTSGMGVGWIRQPSGKGLEWLAHIWWDDDKYYNTALKSGLTISKDTSKNQVFLKIASVDTTDTATYYCARIDWDGFAYWGQGTLVTVSS
VL: QIVLTQSPAILSASPGEKVTMTCRASSSVSYMHWYQQKPGSSPKPWIYATSNLASGVPARFSGSGSGTSYSLTINRVEAEDAATYYCQQWSSNPWTFGGGTKLEIKR
On to B1, for which the binding result in experiment [1] and in experiment [2] was “binds” each time.
